Reference: article PMC4704060
Construct, isoform or probe ends are uncertain for at least one entry. At least one verdict was read from the data and is not stated in words by the source. For some of these results: Where a protein sequence is shown, tags need not be part of it.

The sequences below were run against Bmsob (GST-sob) (UniProt A0A0U2IB10) (assay: EMSA). Conditions: LightShift Chemiluminescent EMSA kit (binding buffer, salt and temperature not stated); 0.8 ug protein, 1-6 pmol biotin probe, 2-100 pmol unlabeled probe; recombinant protein; residues 1-436; protein details: GST (pGEX-4T-1); label: 5' biotin.
“GCCCTTGGGGCCGAAAATCTG (double strand) [Bmsob-BmAntp probe]”: binds. “AATATCCCTCGCCTAGTTACGCTGGC (double strand) [Bmsob-BmDsp probe]”: binds. “GCCTCGGCGCGCCCTGCGACG (double strand) [Bmsob-BmAbd-B probe]”: binds. “CGCGCTCCCGCCACACGCGAC (double strand) [Bmsob-BmUbx probe]”: binds.

These sequences were tested against T1, BmDsp (His-Dsp) (UniProt H9IV52) (assay: EMSA). Conditions: LightShift Chemiluminescent EMSA kit (binding buffer, salt and temperature not stated); 0.8 ug protein, 1-6 pmol biotin probe, 2-100 pmol unlabeled probe; recombinant protein; residues 1-297; protein details: His (pET-28a(+)); label: 5' biotin.
T1 sequence (looked up): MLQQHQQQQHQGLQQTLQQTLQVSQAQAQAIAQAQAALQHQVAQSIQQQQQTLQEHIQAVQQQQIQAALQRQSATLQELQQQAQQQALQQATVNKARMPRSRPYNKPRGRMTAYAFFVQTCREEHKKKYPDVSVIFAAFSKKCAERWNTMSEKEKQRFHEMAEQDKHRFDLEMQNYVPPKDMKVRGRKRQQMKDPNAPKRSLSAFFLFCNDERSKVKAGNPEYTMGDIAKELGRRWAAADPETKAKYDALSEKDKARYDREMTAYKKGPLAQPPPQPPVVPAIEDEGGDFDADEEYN
“GAAAAATTGTTTTACCTGGAACTATA (double strand) [BmDsp-BmAbd-B probe]”: binds. “GCGACGGAAAATACGGACGT (double strand) [BmDsp-BmAntp probe]”: binds. “GATAAGGAAAGGAAAAGAGAG (double strand) [BmDsp-BmUbx probe]”: binds.
